# Screening data, single-dose tests

By UniProt entry, the sequences of proteins in these tests, tags left out.
UniProt P9WPC5, whole entry: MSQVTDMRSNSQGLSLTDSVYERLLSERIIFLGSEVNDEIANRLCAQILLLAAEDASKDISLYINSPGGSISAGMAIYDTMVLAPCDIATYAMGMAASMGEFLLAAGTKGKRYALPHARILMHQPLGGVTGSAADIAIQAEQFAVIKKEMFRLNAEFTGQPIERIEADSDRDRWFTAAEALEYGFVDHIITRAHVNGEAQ
UniProt P9WPC3, whole entry partner: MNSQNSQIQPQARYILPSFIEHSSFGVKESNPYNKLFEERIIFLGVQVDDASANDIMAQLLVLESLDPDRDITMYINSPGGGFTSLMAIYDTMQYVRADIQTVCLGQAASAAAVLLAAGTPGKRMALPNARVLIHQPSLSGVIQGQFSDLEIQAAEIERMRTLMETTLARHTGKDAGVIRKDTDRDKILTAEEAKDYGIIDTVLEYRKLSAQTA

From ChEMBL document CHEMBL3988442, “University of Dundee, Small-Polar-MMV Screening Library” (2021).

Values are the deposited “Percent Effect”, in %. The record does not define 0% and 100%; most values in the screen are far below 50% and negative numbers occur (in some assays of this library far below -100). This is an unselected part of the compounds tested. Two or more numbers in one place are separate tests of the same structure; such repeats can differ widely. A dash means the value is not listed here; it may have been measured.

Toxoplasma: 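Assay of Toxoplasma gondii numbers, read through their beta-galactosidase reporter with a colour substrate. Concentration: 10 µM. The record gives no direction; the compounds picked for IC50 retests had high values, so higher reads as fewer parasites. About 67,000 compounds were tested under these conditions; 0.38% (about 260) showed 50% or more at least once.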
ClpP1P2: 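Protease assay of ClpP1P2, read by the AMC dye that it sets free. Target: ClpP1P2, Mycobacterium tuberculosis (UniProt P9WPC5 and UniProt P9WPC3). Concentration: 50 µM. Direction is inferred from only a few compounds that gave an IC50; most scored high, so higher reads as stronger inhibition. Most other retested compounds had strongly negative values. Size under these conditions: about 69,000 compounds, about 10 of them at 50% or above in at least one test.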
Leishmania in macrophages: 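Cell assay of Leishmania donovani living inside macrophages; the read-out is not stated. Compounds at 30 µM. Higher reads as stronger inhibition (inferred: compounds with an IC50 in retests scored well above the rest). About 69,000 compounds were tested under these conditions; 1.5% (about 1,000) showed 50% or more at least once.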
T. brucei: 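Whole-parasite assay of Trypanosoma brucei over 72 hours; the read-out is not stated. Concentration: 30 µM. The record gives no direction; compounds that gave an IC50 in retests scored well above the rest, so higher reads as stronger inhibition. Values scatter widely below zero; nearly all retest evidence comes from the higher of the two concentrations used. Size under these conditions: about 64,000 compounds, about 940 of them at 50% or above in at least one test.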

structure	Toxoplasma	ClpP1P2	Leishmania in macrophages	T. brucei
c1cc(-c2cnc(C3CCNCC3)cn2)n[nH]1	-7.171%	-11.47%	7.668%	-
[H][C@]12CC[C@]([H])(CN(C3Cc4ccccc4C3)C1)N(C(=O)CCOC)C2	-5.971%	-	15.45%	-0.4003%
Cc1nc(C(=O)N2CCN(S(C)(=O)=O)CC2)c(-c2cccc(F)c2)s1	1.252%	-12.99%	-17.01% and -7.649%	-14.44%
C[C@@H]1CN(C(=O)C2CCS(=O)(=O)CC2)CC[C@@]1(O)C1CCOCC1	9.321%	-0.1661%	11.12%	-10.67%
Cc1cnc(N2CCC3(CCC(C(=O)NC(C)C)C3)CC2)nc1.O=C(O)C(F)(F)F (stereo not given)	-3.138%	-	-24.83%	-57.25%
Cc1ccc(NC2CCN(C(=O)CCc3cscn3)CC2)nn1	14.43%	-6.023%	11.96%	-11.8%
CN(CCN1CCN(c2ccccc2)CC1)C(=O)Nc1ccncc1	5.436%	-10.89%	12.45%	-5.072%
CC(=O)c1ccc(-c2cnn(CC(=O)Nc3ccnn3C)c2)nc1	-14.58%	-12.47%	11.84%	-35.42%
COCC(C)(CCO)NC(=O)Nc1c(F)cccc1Br (stereo not given)	-7.856%	9.934%	28.95%	-7.441%
Cc1ccc(CN2CCc3nc(C(C)C)nc(O)c3CC2)s1	-	18.04%	14.32%	-
[H][C@@]12CCN(C(=O)Cc3cccc(F)c3)C[C@]1(COC)CCO2	7.027%	-	-6.576%	-25.27%
Cn1cc(Cl)cc1C(=O)N1CCCN(Cc2cccs2)CC1	-19.9%	-12.87%	39.27%	-18.24%
CCOCC(=O)N(Cc1ccco1)c1ccc(OC)c(F)c1	-4.877%	-5.69%	19.92%	0.432%
CC(C)CNC(=O)CNC(=O)NC(C)COc1ccccc1F (stereo not given)	6.445%	-5.908%	8.167%	-5.194%
[H][C@@]12OCCN(C(=O)c3nn(C)c4ccccc34)[C@@]1([H])CC[C@@H]2OCC	6.022%	-	26.85%	-56.55%
CS(=O)(=O)c1cccc(Cl)c1C(=O)NCCN1C(=O)CCC1=O	-7.309%	-7.329%	9.994%	-12.51%
CSc1nc2ccsc2c(=O)n1CC(=O)NC1CCCCC1	6.456%	-8.09%	-1.041%	-22.65%
[H][C@@]12CCN(Cc3ccccn3)C[C@@]1([H])O[C@@H](C)C2	1.022%	-	-37.97%	-
[H][C@]12CCN(C(C)=O)[C@@]1([H])C[C@@H](C(=O)Nc1nc(C)cs1)O2	3.482%	-	30.93%	0.3558%
CC(C)(C)n1ncc2c1NC(=O)CSC2c1ccsc1 (stereo not given)	-5.046%	-3.981%	3.373%	-9.686%
[H][C@@]12OCCN(CCN(CC)CC)[C@@]1([H])CC[C@@H]2OCc1ccccn1	1.847%	-	14.91%	-0.1408%
COc1cccc2cc(CNC(=O)N3CCS(=O)(=O)CC3)oc12	-11.09%	-9.281%	-32.37%	-
CSc1ccc(CCNC(=O)Cc2c(C)n[nH]c2C)cc1	-52.43%	-22.53%	9.252%	-18.09%
Cc1oc(-c2nc(C#N)c(N(C)C)o2)cc1S(=O)(=O)N1CCCC1	-4.304%	2.029%	-1.54%	35.24%
Cc1cc(F)c2c(c1)CCCN2C(=O)c1cncc(Br)c1	-11.45%	2.141%	9.038%	6.548%
Cn1cnc2cc(C(=O)NS(=O)(=O)c3ccccc3Cl)ccc21	-7.636%	-6.934%	-15.55%	9.494%
N#Cc1ccc(CS(=O)(=O)NC(=O)c2ccc(C#N)cc2)cc1	-2.462%	-0.6796%	25.07%	-35.46%
O=C(CNC(=O)c1ccc(Cl)cc1)Nc1nccs1	1.121%	11.1%	-5.235%	-45.46%
COCC1CC2(CCN(Cc3cccc(C#N)c3)CC2)CN1C(C)C (stereo not given)	-	-1.763%	-	-
Cc1ccccc1Cc1nc(CSc2nnc(N)n2C)no1	5.62%	-12.92%	20.1%	30.54%
CCC(=O)N1Cc2nccn2CC(CN(C)Cc2cccnc2)C1 (stereo not given)	-	4.057%	-	-
Cl.Clc1cccc(N[C@H]2CCCN[C@H]2Cc2ccccc2)c1	-	-	98.49%	-
CCN(CC)C(=O)CNC(=O)N1CCC(c2ccccc2)C1 (stereo not given)	1.877%	-13.05%	4.819%	-23.3%
Cc1ccoc1C(=O)NCC(Cc1ccc(F)cc1)C(N)=O (stereo not given)	5.021%	10.88%	21.63%	0.241%
Fc1cnc(N2CCC3(CC2)CC(OCc2cccnc2)CO3)nc1.O=C(O)C(F)(F)F.O=C(O)C(F)(F)F (stereo not given)	13.73%	-	-3.244% and 11.05%	-30.45%
CNC(=O)CCS(=O)(=O)Cc1nnnn1-c1ccccc1	1.418%	4.883%	-10.35%	-4.426%
Clc1ccc(OCCc2cc(C3CCN(c4ncccn4)C3)n[nH]2)cc1 (stereo not given)	-9.467%	-12.17%	-39.59%	28.73%
CCSc1ccc(C(=O)N2CCCCC2C(=O)N2CCCC2)cn1 (stereo not given)	3.411%	-8.549%	16.69%	-57.54%
Cc1cc(CC(=O)NC(C)c2ccc(OCC3CC3)c(F)c2)n[nH]1 (stereo not given)	3.928%	-25.84%	9.506%	-1.026%
COc1cccc(C(O)CN2CCN(C(=O)c3ccsc3)CC2)c1 (stereo not given)	-0.7939%	4.673%	22.07%	-
CCCc1nnc2sc(C3CCN(CC)CC3)nn12	-13.64%	-3.215%	12.16%	17.52%
Cc1cc(NC(=O)c2ccc(F)cc2Br)n(C)n1	8.017%	4.121%	-0.6701%	1.338%
CN(C)c1ncc(-c2cncnc2)c(C2CNCCO2)n1 (stereo not given)	-	-16.75%	-	-
N#CCCN(Cc1ccco1)C(=O)CN1CCCC1c1cccs1 (stereo not given)	13.93%	-3.438%	2.194%	9.523%
O=C(NC1CCN(c2ncccn2)CC1)c1cc2c(cc1O)CCCC2	5.305%	3.372%	-4.964%	-27.35%
Fc1cccc(-n2ccc(CN3CCCCC3Cn3cncn3)n2)c1 (stereo not given)	-	-5.598%	13.41%	-26.02%
Cn1cc(CN2CCn3c(CNC(=O)c4cccn4C)cnc3C2)cn1	-	18.82%	-	-
CCCc1nnc(N2CCN(C3CCCC3)CC2)o1	-3.154%	-9.45%	24.79%	-50.77%
CC(=O)N1CCC(Oc2ccc(Cl)cc2C(=O)N2CCCO2)CC1	8.58%	-9.729%	9.207%	-24.32%
O=C(NCc1ccco1)[C@@H]1CCO[C@@H]2CCN(CC3CC3)C[C@@H]21	-	-7.561%	-	-
COCCN(Cc1noc(-c2ccc(OC)cc2)n1)C1CC1	-7.249%	-5.718%	16.77%	-28.16%
CCCc1nn(Cc2csc(C(C)C)n2)c(=O)o1	-7.599%	-0.004034%	16.44%	-
CCN(CCO)Cc1ccc(Br)c2cccnc12	72.7%	-6.925%	11.5%	-15.19%
Cc1ccc2nc(C)c(C)c(C(=O)N3CCN(c4nccs4)CC3)c2c1	4.137%	-9.5%	21.04%	5.379%

Once more, the final 5:

For O=C(NCc1ccco1)[C@@H]1CCO[C@@H]2CCN(CC3CC3)C[C@@H]21 the result was ClpP1P2: -7.561%.
For COCCN(Cc1noc(-c2ccc(OC)cc2)n1)C1CC1 the result was Toxoplasma: -7.249%; ClpP1P2: -5.718%; Leishmania in macrophages: 16.77%; T. brucei: -28.16%.
For CCCc1nn(Cc2csc(C(C)C)n2)c(=O)o1 the result was Toxoplasma: -7.599%; ClpP1P2: -0.004034%; Leishmania in macrophages: 16.44%.
For CCN(CCO)Cc1ccc(Br)c2cccnc12 the result was Toxoplasma: 72.7%; ClpP1P2: -6.925%; Leishmania in macrophages: 11.5%; T. brucei: -15.19%.
For Cc1ccc2nc(C)c(C)c(C(=O)N3CCN(c4nccs4)CC3)c2c1 the result was Toxoplasma: 4.137%; ClpP1P2: -9.5%; Leishmania in macrophages: 21.04%; T. brucei: 5.379%.